From article PMC5527480
No constants are given. Whether binding was seen depends on the method and setting. In cells and extracts the contact can be indirect. Some entries that bind do so weakly or less than the wild type.

Protein sequences, listed by entry. Tags and fused reporters are not part of them. Residues count along the entry.
UniProt P02545, residues 1-646: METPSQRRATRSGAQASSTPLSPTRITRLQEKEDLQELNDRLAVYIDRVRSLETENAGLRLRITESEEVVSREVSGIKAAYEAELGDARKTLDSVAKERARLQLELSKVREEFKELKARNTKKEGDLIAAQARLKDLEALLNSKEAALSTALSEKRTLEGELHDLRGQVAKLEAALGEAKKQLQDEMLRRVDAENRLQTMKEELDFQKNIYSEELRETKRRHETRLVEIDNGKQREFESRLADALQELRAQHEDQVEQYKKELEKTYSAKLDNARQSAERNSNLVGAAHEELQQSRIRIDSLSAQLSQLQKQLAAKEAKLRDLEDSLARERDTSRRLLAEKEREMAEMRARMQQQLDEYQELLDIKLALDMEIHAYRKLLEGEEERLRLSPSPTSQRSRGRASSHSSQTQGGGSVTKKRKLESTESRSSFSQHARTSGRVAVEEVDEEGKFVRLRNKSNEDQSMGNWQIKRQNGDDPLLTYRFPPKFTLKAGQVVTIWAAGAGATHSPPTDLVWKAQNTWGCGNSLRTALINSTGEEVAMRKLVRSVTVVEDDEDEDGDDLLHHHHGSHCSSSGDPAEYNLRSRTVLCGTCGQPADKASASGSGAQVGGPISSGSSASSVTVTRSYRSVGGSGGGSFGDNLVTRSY
UniProt A5YKK6: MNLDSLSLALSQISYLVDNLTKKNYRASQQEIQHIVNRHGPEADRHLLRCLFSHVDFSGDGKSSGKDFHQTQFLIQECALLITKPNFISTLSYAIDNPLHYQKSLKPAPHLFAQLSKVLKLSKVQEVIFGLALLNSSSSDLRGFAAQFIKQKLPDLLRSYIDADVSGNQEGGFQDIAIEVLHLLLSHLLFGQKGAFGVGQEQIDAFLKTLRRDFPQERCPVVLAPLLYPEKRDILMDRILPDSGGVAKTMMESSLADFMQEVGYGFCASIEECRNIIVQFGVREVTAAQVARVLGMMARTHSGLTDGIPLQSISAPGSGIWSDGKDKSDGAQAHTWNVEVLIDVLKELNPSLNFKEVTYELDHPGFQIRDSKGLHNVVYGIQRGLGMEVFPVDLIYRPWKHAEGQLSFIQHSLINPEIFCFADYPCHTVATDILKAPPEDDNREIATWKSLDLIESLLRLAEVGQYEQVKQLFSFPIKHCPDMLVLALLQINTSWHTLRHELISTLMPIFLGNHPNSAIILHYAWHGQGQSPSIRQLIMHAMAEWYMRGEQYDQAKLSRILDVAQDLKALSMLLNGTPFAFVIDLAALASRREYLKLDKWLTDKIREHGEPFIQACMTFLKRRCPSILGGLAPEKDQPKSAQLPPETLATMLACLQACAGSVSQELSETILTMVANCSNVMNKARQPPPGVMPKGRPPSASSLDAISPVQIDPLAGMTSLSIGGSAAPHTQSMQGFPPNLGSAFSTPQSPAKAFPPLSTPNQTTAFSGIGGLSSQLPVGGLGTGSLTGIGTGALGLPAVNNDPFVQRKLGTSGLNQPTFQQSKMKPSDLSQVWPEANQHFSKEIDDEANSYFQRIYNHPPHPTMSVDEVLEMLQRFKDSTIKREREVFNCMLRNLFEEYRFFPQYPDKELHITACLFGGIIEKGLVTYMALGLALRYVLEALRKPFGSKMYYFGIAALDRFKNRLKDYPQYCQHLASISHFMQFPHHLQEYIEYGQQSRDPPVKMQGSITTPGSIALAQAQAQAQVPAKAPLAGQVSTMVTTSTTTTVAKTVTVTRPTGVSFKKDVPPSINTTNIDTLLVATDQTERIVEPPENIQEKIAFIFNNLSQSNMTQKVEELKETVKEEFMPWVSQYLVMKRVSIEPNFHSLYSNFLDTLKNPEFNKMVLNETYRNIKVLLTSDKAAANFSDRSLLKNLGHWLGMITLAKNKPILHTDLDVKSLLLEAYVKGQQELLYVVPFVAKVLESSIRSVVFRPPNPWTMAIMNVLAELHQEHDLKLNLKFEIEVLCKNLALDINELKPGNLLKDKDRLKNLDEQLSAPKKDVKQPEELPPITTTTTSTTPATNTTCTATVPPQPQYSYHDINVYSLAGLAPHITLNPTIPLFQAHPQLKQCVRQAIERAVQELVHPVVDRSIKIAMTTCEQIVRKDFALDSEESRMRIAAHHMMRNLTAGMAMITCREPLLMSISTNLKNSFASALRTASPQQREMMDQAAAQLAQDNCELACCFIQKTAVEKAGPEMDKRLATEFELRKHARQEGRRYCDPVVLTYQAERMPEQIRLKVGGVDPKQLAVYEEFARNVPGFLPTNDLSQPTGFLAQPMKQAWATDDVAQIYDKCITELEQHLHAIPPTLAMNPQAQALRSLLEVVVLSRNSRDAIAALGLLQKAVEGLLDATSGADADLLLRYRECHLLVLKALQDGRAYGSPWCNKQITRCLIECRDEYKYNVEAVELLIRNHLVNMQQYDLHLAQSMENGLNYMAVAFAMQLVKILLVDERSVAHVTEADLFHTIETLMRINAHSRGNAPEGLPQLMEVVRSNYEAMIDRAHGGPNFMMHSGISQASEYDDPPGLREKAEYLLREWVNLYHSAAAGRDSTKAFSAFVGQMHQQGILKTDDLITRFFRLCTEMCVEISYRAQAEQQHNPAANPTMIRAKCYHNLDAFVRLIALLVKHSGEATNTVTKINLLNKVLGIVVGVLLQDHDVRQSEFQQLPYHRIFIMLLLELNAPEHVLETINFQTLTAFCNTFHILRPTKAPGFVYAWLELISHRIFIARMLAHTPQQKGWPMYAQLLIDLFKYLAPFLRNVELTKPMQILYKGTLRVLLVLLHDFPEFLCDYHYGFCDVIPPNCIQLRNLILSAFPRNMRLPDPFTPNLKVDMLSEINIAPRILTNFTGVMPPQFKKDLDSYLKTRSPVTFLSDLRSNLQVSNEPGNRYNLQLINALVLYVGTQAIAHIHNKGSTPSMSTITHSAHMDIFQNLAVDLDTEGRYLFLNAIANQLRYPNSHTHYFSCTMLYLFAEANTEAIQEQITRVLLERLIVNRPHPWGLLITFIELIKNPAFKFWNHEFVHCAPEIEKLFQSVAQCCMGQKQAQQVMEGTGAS

Columns and labels:
[1] = molecular target: lamin A (human (endogenous in MNNG/HOS, MG63, U2OS)) (UniProt P02545); experiment: co-IP; endogenous proteins in whole-cell lysates (3000 μg protein) of MNNG/HOS, MG63 and U2OS cells; anti-CNOT1 or anti-LMNA antibody at 4 °C overnight, protein A/G magnetic beads 4 °C 3 h, washed with PBS containing 1‰ Triton X-100; immunoblot; IgG as negative control
[2] = molecular target: CCR4–NOT transcription complex subunit 1 (human (endogenous in MNNG/HOS, MG63, U2OS)) (UniProt A5YKK6); experiment: as above

binding [1]	binding [2]	Substance
binds	–	CCR4–NOT transcription complex subunit 1 (from UniProt A5YKK6 1-2376)
–	binds	lamin A (from UniProt P02545 1-646)
